These are yes or no findings as the source states them, for the method shown.

The chains behind the UniProt entries cited, without tags or fusion partners.
UniProt P0AGE0: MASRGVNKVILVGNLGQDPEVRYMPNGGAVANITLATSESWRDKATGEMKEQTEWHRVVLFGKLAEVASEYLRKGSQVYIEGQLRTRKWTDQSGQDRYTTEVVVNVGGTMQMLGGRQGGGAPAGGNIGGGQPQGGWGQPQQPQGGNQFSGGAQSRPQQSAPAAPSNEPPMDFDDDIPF

From PMC8210318 come the findings set out here.

The target in one experiment is E. coli SSB (E. coli) (UniProt P0AGE0). Description: native gel or EMSA; super-shift EMSA: RPA (or E. coli SSB) pre-incubated with fork-2 DNA (25 nM) at 37°C, then HelQ or N-HelQ added; buffer HB (10 mM Tris pH 7.5, 50 ug/ml BSA, 5% glycerol), 25 mM DTT; 5% acrylamide TBE gel; both purified. For orientation: A gel shift assay detects complexes by their altered migration in electrophoresis.

Experiment [1] addresses N-HelQ, N-terminal HelQ fragment (amino acids 1-240) (human) (UniProt Q8TDG4). Description: AUC; analytical ultra-centrifugation of N-HelQ, mean mass over three conditions; both purified.

B1: HelQ helicase, full length, human (enzyme, UniProt Q8TDG4 1-1101)
chain: MDECGSRIRRRVSLPKRNRPSLGCIFGAPTAAELVPGDEGKEEEEMVAENRRRKTAGVLPVEVQPLLLSDSPECLVLGGGDTNPDLLRHMPTDRGVGDQPNDSEVDMFGDYDSFTENSFIAQVDDLEQKYMQLPEHKKHATDFATENLCSESIKNKLSITTIGNLTELQTDKHTENQSGYEGVTIEPGADLLYDVPSSQAIYFENLQNSSNDLGDHSMKERDWKSSSHNTVNEELPHNCIEQPQQNDESSSKVRTSSDMNRRKSIKDHLKNAMTGNAKAQTPIFSRSKQLKDTLLSEEINVAKKTVESSSNDLGPFYSLPSKVRDLYAQFKGIEKLYEWQHTCLTLNSVQERKNLIYSLPTSGGKTLVAEILMLQELLCCRKDVLMILPYVAIVQEKISGLSSFGIELGFFVEEYAGSKGRFPPTKRREKKSLYIATIEKGHSLVNSLIETGRIDSLGLVVVDELHMIGEGSRGATLEMTLAKILYTSKTTQIIGMSATLNNVEDLQKFLQAEYYTSQFRPVELKEYLKINDTIYEVDSKAENGMTFSRLLNYKYSDTLKKMDPDHLVALVTEVIPNYSCLVFCPSKKNCENVAEMICKFLSKEYLKHKEKEKCEVIKNLKNIGNGNLCPVLKRTIPFGVAYHHSGLTSDERKLLEEAYSTGVLCLFTCTSTLAAGVNLPARRVILRAPYVAKEFLKRNQYKQMIGRAGRAGIDTIGESILILQEKDKQQVLELITKPLENCYSHLVQEFTKGIQTLFLSLIGLKIATNLDDIYHFMNGTFFGVQQKVLLKEKSLWEITVESLRYLTEKGLLQKDTIYKSEEEVQYNFHITKLGRASFKGTIDLAYCDILYRDLKKGLEGLVLESLLHLIYLTTPYDLVSQCNPDWMIYFRQFSQLSPAEQNVAAILGVSESFIGKKASGQAIGKKVDKNVVNRLYLSFVLYTLLKETNIWTVSEKFNMPRGYIQNLLTGTASFSSCVLHFCEELEEFWVYRALLVELTKKLTYCVKAELIPLMEVTGVLEGRAKQLYSAGYKSLMHLANANPEVLVRTIDHLSRRQAKQIVSSAKMLLHEKAEALQEEVEELLRLPSDFPGAVASSTDKA
On to B1, for which, in the experiment with E. coli SSB (E. coli), the binding result is reported as “no binding”.

B2: N-HelQ, N-terminal HelQ fragment (amino acids 1-240) (domain or fragment, UniProt Q8TDG4 1-240)
chain: MDECGSRIRRRVSLPKRNRPSLGCIFGAPTAAELVPGDEGKEEEEMVAENRRRKTAGVLPVEVQPLLLSDSPECLVLGGGDTNPDLLRHMPTDRGVGDQPNDSEVDMFGDYDSFTENSFIAQVDDLEQKYMQLPEHKKHATDFATENLCSESIKNKLSITTIGNLTELQTDKHTENQSGYEGVTIEPGADLLYDVPSSQAIYFENLQNSSNDLGDHSMKERDWKSSSHNTVNEELPHNCI
Regarding B2, in experiment [1], the binding entry was “no binding”.
